Reference: PubChem BioAssay AID1259424 (University of Nebraska Medical Center, 2018)
Test: 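Find knockdowns that reproduce the expression shifts seen after KSR1 loss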 (primary screen). System: human HCT116 colon cancer cells. Reagent: siRNA pool against human genes, 50 nM. Measured: 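Six signature mRNAs by branched-DNA multiplex assay, scaled to two housekeeping genes and non-targeting median, log2; matched to mean KSR1 knockdown profile by Pearson correlation and euclidean distance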. Reading the numbers: mean correlation with KSR1 profile: higher = expression change more like KSR1 knockdown; mean distance from KSR1 profile: higher = expression change less like KSR1 knockdown.
In all, the deposit lists about 14,000 reagents; this is a random part of them. 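Higher correlation or smaller distance means closer resemblance to KSR1 loss; control wells, including KSR1 knockdowns, recur on many plates.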 Not all columns of the deposit are shown. Reagent sequences are not shown. The record does not give: the time to read-out.

no.	target gene	mean correlation with KSR1 profile	mean distance from KSR1 profile
1	UBR2	0.142	0.958
2	CCT8	-0.307	3.27
3	P4HA2	-0.176	1.73
4	NGFR	0.323	2.11
5	MAN2C1	-0.00648	2.58
6	BAIAP3	0.369	1.78
7	GMCL1	0.0633	2.17
8	PLCB4	0.795	1.25
9	MIEN1	0.618	2.35
10	TMEM134	-0.237	2.38
11	RNF138	-0.4	1.75
12	SPSB1	-0.521	2.51
13	KLF10	-0.713	3.7
14	ETS2	0.0709	2.93
15	ZNF414	0.162	2.1
16	TBCC	-0.114	1.91
17	EPG5	-0.398	4.31
18	COL12A1	-0.58	1.64
19	STAT5A	0.468	2.23
20	KCNQ1	-0.778	1.92
21	CSNK1G2	0.0126	2.73
22	CBLN1	0.0332	1.85
23	USF2	-0.297	1.88
24	RRBP1	0.0324	1.77
25	CYCS	-0.382	2.07
26	HLTF	0.33	0.974
27	PPP3CB	-0.487	2.08
28	LPAR5	0.883	2.27
29	KDM6A	-0.466	1.5
30	TTC38	0.283	1.74
31	THUMPD2	0.123	1.99
32	SPCS3	0.0117	0.904
33	SLC25A44	0.209	1.69
34	RPLP2	-0.592	2.1
35	ITGA1	-0.0548	1.59
36	CACNB1	0.158	1.14
37	PGM5	0.446	3.07
38	AJUBA	-0.0375	2.74
39	PI15	0.271	2.29
40	CFB	0.535	2.88
41	ARL17A	-0.436	3.24
42	ATG13	-0.817	1.51
43	MEGF9	-0.385	1.92
44	DGCR6	-0.294	3.1
45	GPR61	0.803	1.42
46	CSNK2A2	-0.339	3.89
47	GFAP	-0.27	4.4
48	GCKR	0.482	2.24
49	CCDC121	0.225	1.94
50	CELA3A	-0.194	1.68
51	IDO1	-0.367	1.82
52	FXYD3	0.529	1.12
53	PEX11B	-0.575	1.64
54	SNAP25	-0.0628	2.04
55	ZER1	-0.537	2.15
56	FCGR2C	0.367	4.62
57	THG1L	0.287	2.01
58	TAS2R60	0.238	2.78
59	STK33	0.278	1.85
60	ELF5	0.56	2.08
61	EFNB1	0.0469	1.73
62	SLC22A6	0.533	2.37
63	NCAPG	-0.347	2.11
